# Reference: patent US10183015B2, “Heterocyclic compounds and methods of use” (Medivation Technologies LLC, priority 2015, dated 2019)
# Entries after “also recorded” stand apart in the source; their conditions may differ. For at least one compound, name, drawing or mass did not settle the structure.
# Tests used:
# [1] = tested on: SREBP-driven gene expression; assay: Microarray analysis of SREBP-driven gene expression in HepG2 cells; assay type: cell-based; details: 10 μM, serum-free, 16 hours
# [2] = tested on: 60% high fat Paigen diet induced NASH mouse model; assay: Short-term Paigen-diet NASH mouse model: liver weight and liver lipid content; assay type: in vivo
# Procedure: (§1) To investigate whether Compound #37 prevents the development of pathology associated with NASH and steatosis in an acute exploratory disease model, a study was conducted using a diet-induced acute liver steatosis model in mice. […]
# After acclimation, 8-week old male C57Bl/6J mice (Charles River) weighing about 25 g were randomized in 4 groups according their body weight and treated once daily around noon by oral gavage with vehicle, […] (2-hydroxypropyl)-β-cyclodextrin (HP-β-CD) (n=10); Group 2: Compound #37, 5 mg/kg (n=10) Group 3: Compound #37, 20 mg/kg (n=10) Group 4: Compound #37, 40 mg/kg (n=10). During the treatment period, body weight and food intake (measured over 24h) were measured 3 times per week and once a week, respectively. During the acclimation, all mice were fed a standard diet (Special Diets Services RM1 (E), product no. 801492) and tap water ad libitum. […]
# After 21 days of treatment, mice were 4-hour fasted (9 am to 1 pm). One hour after the last dosing (noon), blood was collected by retro-orbital bleeding (maximal volume on EDTA) under isoflurane anesthesia to measure plasma triglycerides, total cholesterol, non-esterified fatty acid, ALT and AST. Mice were then sacrificed by cervical dislocation, and livers were harvested and weighed. Liver samples from the same lobe were dissected, frozen, and analyzed as described below.
# At the end of the treatment period, livers were weighed, and their lipid content was analyzed. The liver weights were unchanged by the treatment.
# Coll1a1 = assay: Short-term Paigen-diet NASH mouse model: hepatic Coll1a1 (collagen 1α1) gene expression (RT-qPCR); assay type: in vivo; details: dose-dependent manner
# Procedure: To investigate whether Compound #37 prevents the development of pathology associated with NASH and steatosis in an acute exploratory disease model, a study was conducted using a diet-induced acute liver steatosis model in mice. As described below, in this study, C57BL/6J mice were initiated on the Paigen diet and simultaneously treated with Compound #37 (5, 20, and 40 mg/kg/day) or vehicle control (20% HPβCD 10 mL/kg/day) by oral gavage for 21 days.
# After acclimation, 8-week old male C57Bl/6J mice (Charles River) weighing about 25 g were randomized in 4 groups according their body weight and treated once daily around noon by oral gavage with vehicle, or Compound #37 at various for 21 days as follows: Group 1: vehicle-20% (2-hydroxypropyl)-β-cyclodextrin (HP-β-CD) (n=10); Group 2: Compound #37, 5 mg/kg (n=10) Group 3: Compound #37, 20 mg/kg (n=10) Group 4: Compound #37, 40 mg/kg (n=10). During the treatment period, body weight and food intake (measured over 24h) were measured 3 times per week and once a week, respectively. […]
# Gene expression analysis. Hepatic expression levels of genes involved in lipid metabolism (FAS, SREBP1, ACC1, SCD1), cholesterol metabolism (HMG-CoAR, LDLR), SREBP proteolysis (SCAP, INSIG1), ER stress (PERK), oxidative stress (NRF2), inflammation (MCP-1), and fibrosis (collagen 1α1) were quantified by RTqPCR. […]
# IL-6 = assay: Short-term Paigen-diet NASH mouse model: liver IL-6 levels; assay type: in vivo; details: 20 mg/kg
# Procedure: as §1
# After acclimation, 8-week old male C57Bl/6J mice (Charles River) weighing about 25 g were randomized in 4 groups according their body weight and treated once daily around noon by oral gavage with vehicle, or Compound #37 at various for 21 days as follows: Group 1: vehicle-20% (2-hydroxypropyl)-β-cyclodextrin (HP-β-CD) (n=10); Group 2: Compound #37, 5 mg/kg (n=10) Group 3: Compound #37, 20 mg/kg (n=10) Group 4: Compound #37, 40 mg/kg (n=10). During the treatment period, body weight and food intake (measured over 24h) were measured 3 times per week and once a week, respectively. During the acclimation, all mice were fed a standard diet (Special Diets Services RM1 (E), product no. 801492) and tap water ad libitum. After the acclimation period, mice were fed until the end of the experiment with a 60% high fat Paigen diet (60 kcal % fat, 1.25% cholesterol, and 0.5% cholate; D11061901, Research Diet) and tap water ad libitum.
# The 60% high fat Paigen diet induced accumulation of liver lipids, inflammation, oxidative stress, and then fibrosis.
# [3] = tested on: diet-induced NASH obese insulin resistant mice; assay: DIN mouse model: blood glucose, plasma insulin, HOMA-IR; assay type: in vivo
# Procedure: Male C57Bl/6J mice (8 weeks old) were housed in enriched ventilated cages (31×12.5×12.7 cm) throughout the experimental phase. Animals' cages litters were changed at least once a week. Animal were housed 5 per cage on inverted 12-hour light cycle (at 09:00 am lights off), 22±2° C. and 55±10% relative humidity. The acclimation period was 20 days. During the acclimation period, all mice were fed a standard diet (RM1 (E) 801492, SDS) and tap water ad libitum. After the acclimation period, mice were fed with the DIN diet (60% fat, cholesterol enriched) and fructose-enriched tap water ad libitum until the end of the experiment.
# At 6 weeks of diet, mice were 4-hour fasted (09:00 am to 1:00 pm) and blood (150 μl/EDTA) was collected at 01:00 pm by retro-orbital bleeding under isoflurane anesthesia. Mice were then allocated in 2 homogenous groups (n=12/group) according to their plasma levels of ALT (average levels: 685U/L), AST (average levels: 627U/L) and HOMA-IR index (average value: 4.7), into 2 homogenous groups (see values at day 0 in Tables 15A and 15B ALT/AST and Tables 16A and 16B for HOMA-IR). Mice were then treated once daily by oral gavage with vehicle (Group 1) or Compound #37 at 20 mg/kg (Group 2) for 70 days.
# To investigate whether Compound #37 improves pre-existing steatosis/NASH pathology, a study was conducted using a 16-week diet-induced NASH mouse model. In this model, mice develop steatosis that progresses with inflammation and fibrosis that mimic many of the observed pathologies in human nonalcoholic fatty liver disease (NAFLD) and NASH (Hebbard & George, 2010). For 6 weeks, mice were fed a high-fat, high-cholesterol diet and provided drinking water containing fructose to induce liver pathology (Charlton et al, 2011). […]
# leptin = assay: 28-day repeat-dose toxicity study in healthy rats: leptin concentrations; assay type: in vivo, rat
structure (smiles),measurement,setting,value
"CC(C)Cc1cc(-c2nc(-c3ccc(NS(=O)(=O)C(F)(F)F)cc3Cl)cs2)ccn1 [Compound 37, N-(3-chloro-4-(2-(2-isobutylpyridin-4-yl)thiazol-4-yl)phenyl)-1,1,1-trifluoromethanesulfonamide]",major SREBP pathways involved in lipid and cholesterol biosynthesis,[1],down-regulated
same,liver cholesterol and fatty acid levels,[2]; 20 mg/kg,increase
same,liver weights,[2]; end of the treatment period,unchanged
same,increase in liver triglycerides,[2]; groups treated with Compound #37,tended to be prevented
same,expression of the collagen 1α1 gene,Coll1a1,tended to decrease
same,liver IL-6 levels,IL-6,tendency to prevent increase
same,Blood glucose levels,"[3]; 20 mg/kg, 70-day treatment",not altered; also recorded: largely unchanged
same,plasma insulin levels,"[3]; 20 mg/kg, 70-day treatment",tended to be reduced
same,HOMA-IR scores,"[3]; 20 mg/kg/day, 10 weeks",trend toward lower
same,leptin concentrations compared with vehicle control,"leptin; female rats, day 4 and day 28",lower
same,decreases in leptin concentrations,leptin; male rats,only observed at the highest dose group
